Assay: peptide synthesis
Conditions: purification step, recovery from crude fraction, one disulfide bridge, sequence written open

With Ala-(Pro)6-(38-57) the step yield was 8.5%.
